Measured values reported in patent US8517736B2, “Method for alleviating the undesired side effects of dental bleaching” (Dr. Gunnar Rolla Consultant AS, priority 2011, dated 2013).

Assay: SEM micrographs of bleached human tooth enamel surface

Structure (SMILES) | enamel surface appearance after calcium hydroxide treatment (SEM, FIG. 2) (bleached tooth of FIG. 1, Ca(OH)2 solution allowed to dry) | loss of mineral on the tooth surface after subsequent NaF treatment (SEM, FIG. 3) (tooth of FIG. 2 (Ca(OH)2 film) subsequently treated with 2% by weight NaF solution)
[Ca+2].[OH-].[OH-] [Ca(OH)2, calcium hydroxide] | covered with a dehydrated film | –
[F-].[Na+] [NaF] | – | has been eliminated
